Experimental data: PubChem BioAssay AID504791 (Drosophila RNAi Screening Center, 2011)

- Test: 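Factors in Argonaute-based small RNA production and activity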 (primary screen)
- System: Drosophila S2-derived reporter cells
- Reagent: long dsRNA against Drosophila genes, about 150-250 ng dsRNA per well (siRNA assay); about 80-120 ng (miRNA assay)
- Time to read-out: about 5 days (siRNA assay); about 4 days (miRNA assay)
- Challenge: copper sulfate induction of reporters: 25 µM (siRNA assay); 200 mM stated (miRNA assay), 1-2 days before reading
- Measured: 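Per-well ratio of Renilla over firefly light, expressed relative to that plate's average ratio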
- Units: stable assay Renilla, run 1 in luminescence; stable assay firefly, run 1 in luminescence
- Hit rule: 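a well was a first-pass pick when its plate-scaled ratio rose above 1.5 (siRNA assay) or 1.6 (miRNA assay), or dropped below 0.6; a gene counted only if two separate dsRNAs agreed on retest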
The deposit covers about 23,000 reagents; this is an unselected part of those with a known target gene and a result. Over the whole deposit, 199 (0.86%) are marked active. 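Plate-scaled ratios behind the calls are not deposited; printed light signals are raw; many rows marked increased or decreased are still called inactive.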 Entries without a mark were called inactive. The numbers tell different reagents against one gene apart. Names joined by + are all predicted targets of the reagent. Not given: the direction of the score.

CG34112
- stable assay Renilla, run 1: 6496
- stable assay firefly, run 1: 3.63e5

Got2 (Glutamate oxaloacetate transaminase 2)
- stable assay Renilla, run 1: 47959
- stable assay firefly, run 1: 8.35e5

CG12546 + CG14452
- stable assay Renilla, run 1: 9243
- stable assay firefly, run 1: 4.05e5

CG8303
- stable assay Renilla, run 1: 5975
- stable assay firefly, run 1: 2.94e5

CG8611
- stable assay Renilla, run 1: 8407
- stable assay firefly, run 1: 4.90e5

CG43740 #1
- stable assay Renilla, run 1: 5620
- stable assay firefly, run 1: 4.67e5

CG43740 #2
- stable assay Renilla, run 1: 4560
- stable assay firefly, run 1: 3.23e5

CG42680
- stable assay Renilla, run 1: 7856
- stable assay firefly, run 1: 6.11e5

CG33111 #1
- stable assay Renilla, run 1: 6602
- stable assay firefly, run 1: 2.66e5

CG33111 #2
- stable assay Renilla, run 1: 6024
- stable assay firefly, run 1: 2.96e5

out (outsiders)
- stable assay Renilla, run 1: 7299
- stable assay firefly, run 1: 3.58e5

l(2)k09913 (lethal (2) k09913)
- stable siRNA reporter change: reporter ratio raised past the hit cutoff
- stable assay Renilla, run 1: 39495
- stable assay firefly, run 1: 4.04e5

Part of the list above, reduced to “stable assay firefly, run 1”:
Got2 (Glutamate oxaloacetate transaminase 2)	8.35e5
CG12546 + CG14452	4.05e5
